According to paper PMC7519287:
Results are given in words; binding and its absence hold for the method and conditions named. Some entries that bind do so weakly or less than the wild type.

Chains of the proteins cited; added tags and fusions are not shown. Lines headed by an entry give the natural chain unless they say otherwise; changes in a name come on top. Residues count along the entry.
UniProt P49951: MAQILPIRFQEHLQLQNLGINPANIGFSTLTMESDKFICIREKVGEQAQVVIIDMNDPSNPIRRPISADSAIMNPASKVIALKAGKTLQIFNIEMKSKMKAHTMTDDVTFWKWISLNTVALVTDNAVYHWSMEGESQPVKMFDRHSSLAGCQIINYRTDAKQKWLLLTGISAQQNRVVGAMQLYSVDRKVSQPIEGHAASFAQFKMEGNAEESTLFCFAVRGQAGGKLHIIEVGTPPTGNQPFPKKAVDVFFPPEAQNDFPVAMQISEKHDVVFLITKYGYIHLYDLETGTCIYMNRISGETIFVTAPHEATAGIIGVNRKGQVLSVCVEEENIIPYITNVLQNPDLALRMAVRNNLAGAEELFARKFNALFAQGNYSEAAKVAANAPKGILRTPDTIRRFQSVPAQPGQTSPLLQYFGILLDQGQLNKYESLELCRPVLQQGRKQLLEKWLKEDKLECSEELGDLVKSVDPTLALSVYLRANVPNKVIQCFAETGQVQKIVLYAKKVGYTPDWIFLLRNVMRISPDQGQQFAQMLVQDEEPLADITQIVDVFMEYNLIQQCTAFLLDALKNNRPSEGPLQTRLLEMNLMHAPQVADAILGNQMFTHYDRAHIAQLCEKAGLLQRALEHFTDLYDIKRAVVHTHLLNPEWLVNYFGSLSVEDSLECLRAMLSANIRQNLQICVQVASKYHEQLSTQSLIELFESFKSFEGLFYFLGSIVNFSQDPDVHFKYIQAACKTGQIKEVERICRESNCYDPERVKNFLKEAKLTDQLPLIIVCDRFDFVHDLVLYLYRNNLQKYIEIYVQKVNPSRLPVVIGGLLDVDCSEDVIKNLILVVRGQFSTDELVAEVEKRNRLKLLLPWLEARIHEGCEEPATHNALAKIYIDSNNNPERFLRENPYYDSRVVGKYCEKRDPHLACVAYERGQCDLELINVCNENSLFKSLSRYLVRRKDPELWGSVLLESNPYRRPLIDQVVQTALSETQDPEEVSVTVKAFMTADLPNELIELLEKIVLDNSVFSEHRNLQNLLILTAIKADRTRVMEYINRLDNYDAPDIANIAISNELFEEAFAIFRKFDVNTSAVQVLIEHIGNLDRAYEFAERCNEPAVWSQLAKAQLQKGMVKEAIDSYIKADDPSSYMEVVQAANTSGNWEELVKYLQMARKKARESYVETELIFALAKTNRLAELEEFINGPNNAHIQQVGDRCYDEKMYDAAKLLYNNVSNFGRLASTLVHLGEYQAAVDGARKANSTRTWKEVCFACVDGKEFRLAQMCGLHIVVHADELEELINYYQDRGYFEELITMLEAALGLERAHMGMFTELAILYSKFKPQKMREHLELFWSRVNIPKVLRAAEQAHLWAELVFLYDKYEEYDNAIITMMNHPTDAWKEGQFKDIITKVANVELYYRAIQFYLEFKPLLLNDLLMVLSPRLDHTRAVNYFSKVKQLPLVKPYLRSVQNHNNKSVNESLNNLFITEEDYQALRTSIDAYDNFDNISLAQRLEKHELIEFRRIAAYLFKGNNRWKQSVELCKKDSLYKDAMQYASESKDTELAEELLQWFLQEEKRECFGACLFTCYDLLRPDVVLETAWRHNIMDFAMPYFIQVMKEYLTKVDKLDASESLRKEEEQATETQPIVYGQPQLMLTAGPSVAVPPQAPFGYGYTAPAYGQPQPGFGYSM
CHC Hub fragment (residues 1074 to 1675): residues 1074-1675 of P49951

Biological target: CHC Hub fragment (residues 1074 to 1675) (UniProt P49951)
Experiment: in vitro coassembly of fragments into cages with electron microscopy; Hub, with or without CLCs, combined with TDD under conditions promoting their coassembly (ref. 47); cage size from EM images; both purified

binding: binds
Substance: CHC terminal-distal leg segment (TDD, residues 1 to 1074) (from UniProt P49951 1-1074) (domain or fragment)
